# About 7,500 (2.1%) of roughly 360,000 compounds were called active. Inconclusive results, whose numbers are uncertain, are shown with a selection of clear calls. Calls follow the shape of the dose curve; as a rule, active = well fitted inhibition curve with a large enough effect; inconclusive = small, poorly fitted or top-dose-only effect, or effect the other way; inactive = flat fitted curve, though single readings scatter. Potencies beside an inconclusive call are fits to weak or partial responses and may not hold up.
# Assay: Nrf2 qHTS screen for inhibitors; also: nearly all actives have a fitted effect of over 60% in size
# Details: A549 ARE-Fluc reporter, luciferase luminescence, 18-24 h; activity change, negative = inhibition: at 46 µM (top of the series)
# Procedure, shortened: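 Nrf2 activity is the BugLite luminescence, read 15 min after reagent at room temperature, following CellTiter-Fluor cytotoxicity readout (30 min, 37C). Compound titrations were applied for 18-24 h to 5000 A549 ARE_Fluc cells/well in 5% FBS OPTI-MEM.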
# % is scaled to controls: 0 for no effect and ±100 for the full control effect; potency is read from the fitted curve at half-maximal effect.
Compound,"activity change, negative = inhibition",Potency
Cc1ccc(S(=O)C(c2ccccc2)c2ccccc2)cc1 (stereo not drawn),inactive: -13.3%,
Cn1c(=O)[nH]c(=O)c2c1nc(N1CCN(C(=O)c3ccco3)CC1)n2CCCSc1ncccn1,,"inconclusive: 0.92 µM [activator, full curve, poor fit]"
COc1cccc(NC(=O)CCc2nc(-c3cc(OC)c(OC)c(OC)c3)no2)c1,inactive: -27.8%,
O=C(c1ccncc1)N1c2ccccc2Sc2ccccc21,,"inconclusive: 14.6 µM [falling, partial curve]"
COC(=O)C1CCN(c2ccc(C(N)=O)cc2[N+](=O)[O-])CC1,,"inconclusive: 18.4 µM [falling, partial curve, poor fit]"
CCC(=O)Nc1cc(C(=O)OC(C(=O)c2ccc(C)c(C)c2)c2ccccc2)ccc1C (stereo not drawn),,"inconclusive: 13 µM [falling, partial curve, poor fit]"
CCCOc1ccc(C(=O)Nc2ccc(N3CCN(C(=O)c4ccco4)CC3)cc2)cc1,,"inconclusive: 25.9 µM [falling, single point]"
Cc1cc(C)cc(N(CCC(=O)Nc2nnc(C3CC3)s2)S(=O)(=O)c2ccc(Cl)cc2)c1,,"inconclusive: 32.6 µM [falling, single point]"
COc1ccc(CCNC(=O)c2cc(-c3ccc(Cl)cc3)on2)cc1OC,inactive: -5.85%,
CC(C)CCC1(C)NC(=O)N(CC(=O)c2ccc[nH]2)C1=O (stereo not drawn),inactive: 10.6%,
Cc1cccc(NC(=O)Cn2cnc3c(oc4ccccc43)c2=O)c1C,,"inconclusive: 23.1 µM [falling, single point]"
O=C(c1cc(C(=O)NCCc2ccccc2)c(=O)n(CCc2ccccc2)c1)c1cc(Cl)ccc1O,,"inconclusive: 29.1 µM [falling, single point]"
CC(C)CCN1C(=O)c2ccc(C(=O)Nc3ccccc3C(=O)O)cc2C1=O,,"inconclusive: 29.1 µM [activator, single point]"
O=C(N/N=C/c1ccc(OC(=O)c2ccco2)cc1)c1ccccn1,,"inconclusive: 9.2 µM [activator, partial curve, poor fit]"
COc1ccc(C(=O)/C=C/C(=O)N(CC(=O)NC2CCCCC2)Cc2ccccc2OC)c(O)c1,,"inconclusive: 29.1 µM [falling, single point]"
O=C(c1ccccc1)N1CCN(Cc2cccc(Oc3ccccc3)c2)CC1,,"inconclusive: 29.1 µM [falling, single point]"
O=[N+]([O-])c1cccc2c(Cl)ccnc12,,"inconclusive: 0.0052 µM [falling, full curve, poor fit]"
O=C(NCc1ccccc1Cl)c1csc2c1CCCCC2,,"inconclusive: 8.2 µM [activator, partial curve]"
